PubChem BioAssay AID1259254, NCATS | 2017
Purpose: 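Gene knock-downs that lead to re-replication, shown by excess G2 DNA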 (primary screen). Cell system: human HCT116 colorectal cancer cells. Reagents: single siRNA against human genes. Time to read-out: 3 days. Read-out: 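Nuclei stained with Hoechst and imaged; cell-cycle phase assigned by DNA content; G2 share scaled per plate, non-targeting siRNA 0%, GMNN siRNA 100%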. Reading the numbers: G2 robust z-score and G2 cells, % of GMNN control: higher = more G2 cells, more excess DNA replication; raw share of cells in G2: higher = larger share of cells with G2 DNA content. Rule for the call: 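An siRNA counts as active if its G2 robust z-score lies at least 5 MADs above the screen median; here such calls match roughly 38% of GMNN control or more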.
Here is a random part of about 59,000 reagents tested. About 1,550 of them (2.6%) were called active. 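G2 share is only a proxy for re-replication; each gene was hit by three separate siRNAs, and active genes were retested.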 Raw values vary from plate to plate and are shown uncorrected. Unmarked entries are inactive. The numbers tell different reagents against one gene apart. Not given: the amount of reagent.

| Gene | reagent no. | G2 robust z-score | G2 cells, % of GMNN control | raw share of cells in G2 (%) |
| --- | --- | --- | --- | --- |
| ITPRIP | 1 | -0.857 | -3.06 | 2.78 |
| ITPRIP | 2 | -0.504 | -0.577 | 2.82 |
| ITPRIP | 3 | -0.0146 | 2.86 | 3.83 |
| YEATS2 | 1 | 1.88 | 16.2 | 10.8 |
| YEATS2 | 2 | -1.09 | -4.72 | 2.18 |
| YEATS2 | 3 | -0.0246 | 2.79 | 4.03 |
| TP53BP1 | 1 | -1.32 | -6.3 | 2.94 |
| TP53BP1 | 2 | -0.833 | -2.89 | 3.52 |
| TP53BP1 | 3 | -0.416 | 0.0404 | 4.28 |
| VXN | 1 | 1.54 | 13.8 | 7.59 |
| VXN | 2 | 0.358 | 5.49 | 5.57 |
| VXN | 3 | -0.225 | 1.38 | 3.6 |
| MPG | 1 | -0.936 | -3.62 | 4.04 |
| MPG | 2 | 0.193 | 4.33 | 7.03 |
| MPG | 3 | 3.26 | 25.9 | 11.7 |
| OR5D18 | 1 | 0.661 | 7.61 | 5.62 |
| OR5D18 | 2 | 0.273 | 4.89 | 5.35 |
| OR5D18 | 3 | 0.354 | 5.46 | 5 |
| POLR1HASP | 1 | 0.152 | 4.04 | 6.12 |
| POLR1HASP | 2 | -0.055 | 2.58 | 5.43 |
| POLR1HASP | 3 | -0.438 | -0.112 | 2.35 |
| SCUBE2 | 1 | -1.28 | -6.02 | 3.19 |
| SCUBE2 | 2 | -0.409 | 0.0932 | 2.82 |
| SCUBE2 | 3 | 4.38 | 33.8 | 14.2 |
| PSMC6 | 1 | 6.82 (active) | 51 | 22.5 |
| PSMC6 | 2 | 2.07 | 17.5 | 11.4 |
| PSMC6 | 3 | 1.22 | 11.6 | 7.99 |
| MIER2 | 1 | -0.397 | 0.175 | 3.67 |
| MIER2 | 2 | 1.73 | 15.1 | 10.6 |
| MIER2 | 3 | -0.373 | 0.343 | 3.31 |
| RBMY1F | 1 | -1.12 | -4.95 | 3.6 |
| RBMY1F | 2 | 1.4 | 12.8 | 9.39 |
| RBMY1F | 3 | -0.727 | -2.15 | 3.8 |
| SPATA19 | 1 | -0.712 | -2.04 | 2.84 |
| SPATA19 | 2 | 0.0889 | 3.59 | 4.36 |
| SPATA19 | 3 | 1.73 | 15.1 | 8.02 |
| PIM3 | 1 | 0.803 | 8.62 | 8.27 |
| PIM3 | 2 | -0.902 | -3.38 | 3.96 |
| PIM3 | 3 | 0.146 | 4 | 4.96 |
| GCKR | 1 | -1.63 | -8.5 | 2.8 |
| GCKR | 2 | -0.794 | -2.62 | 4.53 |
| GCKR | 3 | -0.635 | -1.5 | 3.5 |
| ETV2 | 1 | -1.33 | -6.42 | 1.37 |
| ETV2 | 2 | 0.965 | 9.76 | 8.97 |
| ETV2 | 3 | 0.976 | 9.83 | 8.81 |
| ACVR2B | 1 | -0.552 | -0.913 | 5.31 |
| ACVR2B | 2 | 0.262 | 4.81 | 7.03 |
| ACVR2B | 3 | -0.936 | -3.62 | 2.75 |
